Article PMC3846833
Results are given in words; binding and its absence hold for the method and conditions named. In cells and extracts the contact can be indirect. Binding calls can cover weak binding; strength is not graded here.

Assays:
[1] = target: complete ORF of sheep MSV (aa 1-321) with a C-terminal V5-tag (rMSV-V5) (sheep); test: co-IP; as a3, with the muscle extract spiked with purified rMSV-V5; blot with anti-myostatin; only the target purified
[2] = target: myostatin splice variant (MSV), endogenous in sheep skeletal muscle (sheep (endogenous in semitendinosus muscle)); test: co-IP; anti-MSV antibody beads in total protein extract of sheep semitendinosus muscle, 4°C, 18 h; 50 mM Tris-HCl pH 7.5, 100 mM NaCl, 0.1% Triton X-100; blot with anti-myostatin

B1: mature myostatin, endogenous in sheep skeletal muscle (ligand, UniProt O18830 267-375)
chain: DFGLDCDEHSTESRCCRYPLTVDFEAFGWDWIIAPKRYKANYCSGECEFLFLQKYPHTHLVHQANPKGSAGPCCTPTKMSPINMLYFNGKEQIIYGKIPGMVVDRCGCS
B1 was tested, and the binding [1] was “binds” and the binding [2] was “binds”.
